At least one compound was matched to its structure with a doubt left.
System: neuromyelitis optica (NMO) patient
Test: Case report of off-label treatment of NMO patient with cladribine
Format: in vivo, human
Conditions: same patient, before cladribine
Method: A person presented with acute visual symptoms and optic neuritis with normal head MRI. Episodic visual symptoms recurred with increasing severity up to complete blindness in one eye and episodes of deterioration in the other. Some response to methylprednisolone was noted. The diagnostic test for NMO-IgG (ELISA) was positive and brain MRI had no focal lesions.
20 mg of cladribine were administered subcutaneously to the patient on each of five dosing days, with one month or more separating the dosing days. On a dosing day, two vials were used each containing 10 ml of a solution of cladribine as shown in Example 2. Eight subcutaneous sites were used, each receiving an injection of 2.5 ml.
At the end of nine months blindness was complete bilaterally but motor and sensory functions were normal. […] After 2 years the patient was admitted with motor, sensory and autonomic symptoms. Based on new symptoms, abnormalities on spinal cord MRI and the previous NMO-IgG test the diagnosis was confirmed as neuromyelitis optica. After 3 months there was partial improvement but remaining mild paraparesis.
Prior to cladribine treatment this patient experienced five episodes of worsening over four years (estimated annual relapse rate of 1.46). The intervening remission periods were 13, 15, 6 and 6 months. […]

SMILES: C[C@H]1C[C@@H]2[C@H]([C@@H](O)C[C@@]3(C)[C@H]2CC[C@]3(O)C(=O)CO)[C@@]2(C)C=CC(=O)C=C12 [methylprednisolone]
- response of visual symptoms to methylprednisolone: Some response

From patent US10350231B2, “Use of cladribine for treating autoimmune inflammatory disease” (Chord Therapeutics S.a.r.l., priority 2014, dated 2019)
